Measurements published in article PMC4264191.
No constants are given. Whether binding was seen depends on the method and setting. In cells and extracts the contact can be indirect. Some entries that bind do so weakly or less than the wild type.

By UniProt entry, the sequences of proteins in these tests, tags left out.
UniProt Q12791: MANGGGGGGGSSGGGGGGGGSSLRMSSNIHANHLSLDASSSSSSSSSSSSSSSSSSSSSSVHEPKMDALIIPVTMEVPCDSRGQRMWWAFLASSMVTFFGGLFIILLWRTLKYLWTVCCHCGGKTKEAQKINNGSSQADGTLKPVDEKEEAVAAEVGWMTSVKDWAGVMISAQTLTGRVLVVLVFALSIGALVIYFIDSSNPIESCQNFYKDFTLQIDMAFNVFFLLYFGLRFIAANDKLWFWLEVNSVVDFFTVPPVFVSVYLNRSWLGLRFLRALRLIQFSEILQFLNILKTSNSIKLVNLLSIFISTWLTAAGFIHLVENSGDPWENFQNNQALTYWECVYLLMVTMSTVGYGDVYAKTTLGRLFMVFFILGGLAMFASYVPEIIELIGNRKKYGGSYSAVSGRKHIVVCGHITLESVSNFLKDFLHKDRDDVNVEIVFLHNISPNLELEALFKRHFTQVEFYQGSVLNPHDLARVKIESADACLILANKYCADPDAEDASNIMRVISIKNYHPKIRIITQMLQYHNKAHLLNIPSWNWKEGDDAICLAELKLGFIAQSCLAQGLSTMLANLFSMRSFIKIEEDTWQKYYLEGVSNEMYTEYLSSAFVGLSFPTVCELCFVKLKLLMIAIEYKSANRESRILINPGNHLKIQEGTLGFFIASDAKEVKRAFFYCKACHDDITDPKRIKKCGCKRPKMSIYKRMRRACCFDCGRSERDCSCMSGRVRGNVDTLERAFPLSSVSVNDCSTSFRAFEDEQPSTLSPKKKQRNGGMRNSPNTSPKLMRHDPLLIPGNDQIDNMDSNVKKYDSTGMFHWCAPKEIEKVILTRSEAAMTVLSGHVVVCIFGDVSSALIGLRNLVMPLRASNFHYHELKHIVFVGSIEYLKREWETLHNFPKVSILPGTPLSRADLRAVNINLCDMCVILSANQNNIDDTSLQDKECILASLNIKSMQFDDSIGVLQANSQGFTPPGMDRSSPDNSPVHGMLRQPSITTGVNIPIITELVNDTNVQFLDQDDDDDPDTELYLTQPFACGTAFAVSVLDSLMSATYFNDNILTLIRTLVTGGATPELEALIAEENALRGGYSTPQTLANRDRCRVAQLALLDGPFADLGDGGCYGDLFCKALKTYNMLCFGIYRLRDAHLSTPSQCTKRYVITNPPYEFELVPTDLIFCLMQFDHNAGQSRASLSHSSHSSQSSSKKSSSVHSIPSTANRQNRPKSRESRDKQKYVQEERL
UniProt Q03135: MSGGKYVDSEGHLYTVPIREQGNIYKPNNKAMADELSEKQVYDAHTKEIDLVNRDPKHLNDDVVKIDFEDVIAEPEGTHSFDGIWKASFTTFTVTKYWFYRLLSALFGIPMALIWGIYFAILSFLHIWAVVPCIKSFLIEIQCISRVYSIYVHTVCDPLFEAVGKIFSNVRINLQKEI

Tests used:
[1] = molecular target: large conductance Ca2+-activated potassium (BKCa) channel, pore-forming alpha-subunit (human (endogenous in MCF-7)) (UniProt Q12791); assay: co-IP; endogenous proteins from MCF-7 lysate (150 mM NaCl, 50 mM Tris-HCl, 10 mM HEPES pH 7.4, 0.1% NP-40, 0.25% sodium deoxycholate); 2 μg polyclonal anti-caveolin-1 or anti-BK-α antibody, 4 h, 4 °C, protein-G-Sepharose beads overnight; Western blot
[2] = molecular target: caveolin-1 (human (endogenous in MCF-7)) (UniProt Q03135); assay: as above

Row | Substance | binding [1] | binding [2]
1 | caveolin-1 (from UniProt Q03135 1-178) | binds | –
2 | large conductance Ca2+-activated potassium (BKCa) channel, pore-forming alpha-subunit (from UniProt Q12791 1-1236) | – | binds
